The list shows a part of the results.

By UniProt entry, the sequences of proteins in these tests, tags left out. Where a name states a change or a piece, a line headed by the entry shows the natural chain unless it says otherwise.
UniProt O60936: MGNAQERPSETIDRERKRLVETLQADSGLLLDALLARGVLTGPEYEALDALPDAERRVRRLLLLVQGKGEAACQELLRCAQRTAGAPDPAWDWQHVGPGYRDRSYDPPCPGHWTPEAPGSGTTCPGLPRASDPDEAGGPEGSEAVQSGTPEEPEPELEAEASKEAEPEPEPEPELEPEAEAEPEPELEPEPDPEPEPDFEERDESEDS
UniProt Q96MY1: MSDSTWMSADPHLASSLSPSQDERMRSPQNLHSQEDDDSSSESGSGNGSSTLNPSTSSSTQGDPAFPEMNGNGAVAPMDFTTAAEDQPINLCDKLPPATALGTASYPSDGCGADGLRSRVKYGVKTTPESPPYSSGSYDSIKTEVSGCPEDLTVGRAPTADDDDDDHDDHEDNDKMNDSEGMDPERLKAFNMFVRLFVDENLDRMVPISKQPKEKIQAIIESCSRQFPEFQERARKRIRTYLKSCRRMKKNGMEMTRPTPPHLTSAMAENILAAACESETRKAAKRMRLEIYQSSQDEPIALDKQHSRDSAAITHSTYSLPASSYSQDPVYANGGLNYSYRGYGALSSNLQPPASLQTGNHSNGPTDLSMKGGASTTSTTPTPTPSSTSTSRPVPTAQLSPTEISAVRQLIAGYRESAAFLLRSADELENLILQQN
UniProt Q76FK4: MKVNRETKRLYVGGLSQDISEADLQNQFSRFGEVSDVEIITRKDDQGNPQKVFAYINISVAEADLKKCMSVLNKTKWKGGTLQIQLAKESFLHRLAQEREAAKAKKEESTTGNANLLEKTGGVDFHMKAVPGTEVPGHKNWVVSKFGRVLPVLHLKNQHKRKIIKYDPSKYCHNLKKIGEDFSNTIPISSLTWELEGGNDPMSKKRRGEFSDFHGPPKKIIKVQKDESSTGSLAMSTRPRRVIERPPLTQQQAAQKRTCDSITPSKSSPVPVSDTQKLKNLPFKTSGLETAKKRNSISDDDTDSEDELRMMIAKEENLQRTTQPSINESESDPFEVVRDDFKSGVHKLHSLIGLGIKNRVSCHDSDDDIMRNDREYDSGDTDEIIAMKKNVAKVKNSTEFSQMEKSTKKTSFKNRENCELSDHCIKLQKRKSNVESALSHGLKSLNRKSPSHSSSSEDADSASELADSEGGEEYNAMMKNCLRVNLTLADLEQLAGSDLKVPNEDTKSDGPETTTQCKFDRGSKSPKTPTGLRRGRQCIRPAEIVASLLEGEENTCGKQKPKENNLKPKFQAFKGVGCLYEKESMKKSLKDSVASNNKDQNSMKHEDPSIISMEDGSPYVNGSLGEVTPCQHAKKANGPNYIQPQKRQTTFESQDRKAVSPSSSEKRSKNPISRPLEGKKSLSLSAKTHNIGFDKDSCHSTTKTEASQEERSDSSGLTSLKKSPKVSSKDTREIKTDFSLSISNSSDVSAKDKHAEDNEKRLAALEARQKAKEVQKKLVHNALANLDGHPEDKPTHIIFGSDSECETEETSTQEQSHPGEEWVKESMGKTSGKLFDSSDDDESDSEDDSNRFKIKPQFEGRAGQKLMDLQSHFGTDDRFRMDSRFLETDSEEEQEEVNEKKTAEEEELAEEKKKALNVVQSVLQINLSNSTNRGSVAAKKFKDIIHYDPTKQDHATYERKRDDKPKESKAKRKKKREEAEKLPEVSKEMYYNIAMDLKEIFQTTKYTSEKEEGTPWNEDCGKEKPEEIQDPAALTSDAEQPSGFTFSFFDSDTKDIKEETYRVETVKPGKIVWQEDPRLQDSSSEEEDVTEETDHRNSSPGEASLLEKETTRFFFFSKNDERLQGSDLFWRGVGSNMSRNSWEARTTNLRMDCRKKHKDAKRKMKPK
UniProt Q9UK39: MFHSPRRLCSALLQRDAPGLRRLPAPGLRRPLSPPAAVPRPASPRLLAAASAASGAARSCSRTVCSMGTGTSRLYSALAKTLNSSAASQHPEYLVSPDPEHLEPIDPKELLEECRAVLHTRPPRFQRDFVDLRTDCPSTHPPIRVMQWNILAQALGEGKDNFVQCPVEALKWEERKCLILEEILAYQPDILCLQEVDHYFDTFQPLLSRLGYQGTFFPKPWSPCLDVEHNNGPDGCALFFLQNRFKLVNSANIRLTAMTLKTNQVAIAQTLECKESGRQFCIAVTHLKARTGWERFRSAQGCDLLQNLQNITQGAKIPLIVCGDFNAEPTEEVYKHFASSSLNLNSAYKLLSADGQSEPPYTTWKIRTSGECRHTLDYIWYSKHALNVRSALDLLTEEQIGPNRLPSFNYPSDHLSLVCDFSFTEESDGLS
UniProt Q9BRQ3: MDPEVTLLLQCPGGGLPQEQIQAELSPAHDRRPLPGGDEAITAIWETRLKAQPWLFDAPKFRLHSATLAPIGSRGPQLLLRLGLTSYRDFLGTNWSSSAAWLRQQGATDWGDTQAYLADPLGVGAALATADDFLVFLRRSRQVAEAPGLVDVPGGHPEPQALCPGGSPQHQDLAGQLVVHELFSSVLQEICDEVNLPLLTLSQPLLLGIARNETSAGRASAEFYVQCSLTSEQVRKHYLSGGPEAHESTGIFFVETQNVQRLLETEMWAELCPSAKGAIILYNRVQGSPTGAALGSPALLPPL
UniProt Q5C9Z4: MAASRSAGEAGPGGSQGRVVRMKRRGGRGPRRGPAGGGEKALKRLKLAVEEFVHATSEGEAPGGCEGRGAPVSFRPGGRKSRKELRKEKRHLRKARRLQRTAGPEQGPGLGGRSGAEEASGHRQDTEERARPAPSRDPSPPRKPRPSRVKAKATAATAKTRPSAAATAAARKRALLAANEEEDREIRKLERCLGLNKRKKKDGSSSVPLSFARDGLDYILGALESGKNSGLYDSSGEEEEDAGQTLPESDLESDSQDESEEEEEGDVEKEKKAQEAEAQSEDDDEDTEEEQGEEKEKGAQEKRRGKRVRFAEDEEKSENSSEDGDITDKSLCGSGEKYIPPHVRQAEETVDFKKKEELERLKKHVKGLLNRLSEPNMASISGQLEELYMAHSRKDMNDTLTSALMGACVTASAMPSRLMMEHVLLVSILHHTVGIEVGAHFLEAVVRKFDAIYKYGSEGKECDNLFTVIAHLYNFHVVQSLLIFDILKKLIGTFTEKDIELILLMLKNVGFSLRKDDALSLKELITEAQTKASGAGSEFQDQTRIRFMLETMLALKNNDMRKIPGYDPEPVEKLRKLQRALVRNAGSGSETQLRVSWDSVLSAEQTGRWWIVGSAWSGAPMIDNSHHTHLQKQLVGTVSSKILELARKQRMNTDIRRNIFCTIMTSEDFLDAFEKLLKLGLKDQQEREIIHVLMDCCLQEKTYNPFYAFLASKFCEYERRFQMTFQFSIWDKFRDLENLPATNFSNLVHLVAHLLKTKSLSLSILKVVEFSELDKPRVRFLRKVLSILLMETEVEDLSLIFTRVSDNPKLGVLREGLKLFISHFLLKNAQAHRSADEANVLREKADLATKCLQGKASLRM
UniProt P04150: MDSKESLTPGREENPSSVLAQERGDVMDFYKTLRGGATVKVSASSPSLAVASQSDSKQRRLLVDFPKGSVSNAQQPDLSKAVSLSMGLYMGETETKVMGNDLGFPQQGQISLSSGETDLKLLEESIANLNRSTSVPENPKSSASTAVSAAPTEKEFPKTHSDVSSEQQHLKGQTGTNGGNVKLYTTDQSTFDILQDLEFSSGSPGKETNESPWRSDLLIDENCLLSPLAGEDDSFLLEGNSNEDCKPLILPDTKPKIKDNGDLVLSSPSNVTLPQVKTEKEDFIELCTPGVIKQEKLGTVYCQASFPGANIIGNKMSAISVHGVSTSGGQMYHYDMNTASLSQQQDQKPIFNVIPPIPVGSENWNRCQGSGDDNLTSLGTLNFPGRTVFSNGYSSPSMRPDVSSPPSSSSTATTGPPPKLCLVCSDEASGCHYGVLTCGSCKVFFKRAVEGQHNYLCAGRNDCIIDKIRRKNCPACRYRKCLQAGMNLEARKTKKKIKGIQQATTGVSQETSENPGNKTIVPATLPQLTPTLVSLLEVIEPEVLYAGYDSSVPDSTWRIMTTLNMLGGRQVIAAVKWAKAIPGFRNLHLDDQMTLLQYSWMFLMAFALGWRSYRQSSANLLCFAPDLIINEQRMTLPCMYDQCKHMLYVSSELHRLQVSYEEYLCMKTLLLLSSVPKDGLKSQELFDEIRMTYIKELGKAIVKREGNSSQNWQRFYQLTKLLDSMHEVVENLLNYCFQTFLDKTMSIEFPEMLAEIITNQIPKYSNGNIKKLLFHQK
UniProt Q92686, whole entry, looked up: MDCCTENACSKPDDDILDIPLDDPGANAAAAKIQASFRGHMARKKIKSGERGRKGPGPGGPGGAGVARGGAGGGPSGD
UniProt Q96T66: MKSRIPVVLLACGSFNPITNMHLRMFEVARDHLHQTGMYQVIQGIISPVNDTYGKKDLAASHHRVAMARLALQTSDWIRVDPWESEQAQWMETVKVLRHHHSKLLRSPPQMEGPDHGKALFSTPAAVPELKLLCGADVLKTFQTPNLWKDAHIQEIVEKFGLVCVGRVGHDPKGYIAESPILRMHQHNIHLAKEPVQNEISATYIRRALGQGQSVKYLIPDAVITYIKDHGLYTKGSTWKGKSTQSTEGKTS
UniProt Q9UHK0: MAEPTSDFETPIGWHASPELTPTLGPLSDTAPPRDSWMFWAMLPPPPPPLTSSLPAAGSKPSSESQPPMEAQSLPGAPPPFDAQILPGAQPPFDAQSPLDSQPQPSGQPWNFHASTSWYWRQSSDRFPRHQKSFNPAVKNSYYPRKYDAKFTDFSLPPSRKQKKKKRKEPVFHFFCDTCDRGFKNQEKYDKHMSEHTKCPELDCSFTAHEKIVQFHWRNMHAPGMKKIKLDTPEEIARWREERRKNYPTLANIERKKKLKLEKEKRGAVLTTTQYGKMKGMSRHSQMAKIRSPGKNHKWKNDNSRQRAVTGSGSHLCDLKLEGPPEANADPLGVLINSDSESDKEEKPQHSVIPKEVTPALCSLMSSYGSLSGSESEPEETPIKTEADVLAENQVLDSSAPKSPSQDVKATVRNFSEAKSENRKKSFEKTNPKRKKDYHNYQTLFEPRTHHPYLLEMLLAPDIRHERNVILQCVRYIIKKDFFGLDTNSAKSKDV
UniProt Q9BZ95: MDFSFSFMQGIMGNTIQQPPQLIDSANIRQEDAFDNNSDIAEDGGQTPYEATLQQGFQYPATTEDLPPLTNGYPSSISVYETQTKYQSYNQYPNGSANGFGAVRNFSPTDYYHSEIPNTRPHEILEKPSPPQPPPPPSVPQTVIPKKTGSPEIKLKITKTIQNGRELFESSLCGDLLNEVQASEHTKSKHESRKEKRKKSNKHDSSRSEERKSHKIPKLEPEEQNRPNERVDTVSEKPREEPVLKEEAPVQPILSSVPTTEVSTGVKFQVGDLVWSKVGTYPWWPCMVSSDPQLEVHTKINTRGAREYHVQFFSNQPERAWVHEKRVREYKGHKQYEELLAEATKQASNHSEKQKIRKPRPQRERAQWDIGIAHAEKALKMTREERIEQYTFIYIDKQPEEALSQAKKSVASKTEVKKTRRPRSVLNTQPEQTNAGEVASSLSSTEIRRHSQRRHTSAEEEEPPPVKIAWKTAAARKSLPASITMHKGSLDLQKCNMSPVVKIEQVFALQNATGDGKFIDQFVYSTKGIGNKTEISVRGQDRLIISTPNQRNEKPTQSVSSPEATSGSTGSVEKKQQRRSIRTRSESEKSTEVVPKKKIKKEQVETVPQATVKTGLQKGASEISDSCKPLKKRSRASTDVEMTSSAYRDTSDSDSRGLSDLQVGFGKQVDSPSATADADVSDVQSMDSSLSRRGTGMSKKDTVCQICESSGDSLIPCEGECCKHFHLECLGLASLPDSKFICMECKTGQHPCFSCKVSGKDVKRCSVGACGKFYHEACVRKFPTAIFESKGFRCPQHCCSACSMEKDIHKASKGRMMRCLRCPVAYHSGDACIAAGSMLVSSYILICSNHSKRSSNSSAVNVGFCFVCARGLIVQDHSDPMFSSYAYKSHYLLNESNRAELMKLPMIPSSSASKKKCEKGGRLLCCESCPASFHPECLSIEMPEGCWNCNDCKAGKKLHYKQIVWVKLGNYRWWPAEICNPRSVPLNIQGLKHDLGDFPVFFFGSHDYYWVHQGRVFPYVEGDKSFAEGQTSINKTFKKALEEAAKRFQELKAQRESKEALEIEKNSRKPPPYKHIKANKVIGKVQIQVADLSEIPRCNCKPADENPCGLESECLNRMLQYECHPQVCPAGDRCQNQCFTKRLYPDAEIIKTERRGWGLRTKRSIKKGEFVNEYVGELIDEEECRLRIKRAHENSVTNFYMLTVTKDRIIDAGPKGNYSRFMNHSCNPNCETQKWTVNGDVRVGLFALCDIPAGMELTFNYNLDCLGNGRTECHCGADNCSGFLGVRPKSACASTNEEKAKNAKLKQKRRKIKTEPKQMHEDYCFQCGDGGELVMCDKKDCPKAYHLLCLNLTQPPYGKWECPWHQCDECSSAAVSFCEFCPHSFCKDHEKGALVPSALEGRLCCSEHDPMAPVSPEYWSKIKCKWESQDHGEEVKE

Compound in one assay: CS(=O)(=O)CCNCc1ccc(-c2ccc3ncnc(Nc4ccc(OCc5cccc(F)c5)c(Cl)c4)c3c2)o1 [lapatinib]
The assay is described as follows: log2 fold change, soluble protein after heating vs DMSO (PISA); higher = thermal stabilisation; K562 lysate, 10 uM; active = over 0.2 and 3.5 SD of the protein, either way, in both replicates (recomputed). A digest of the protocol: (§1)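 K562 pellets were dounce-homogenised in PBS pH 7.4 with 1 mM MgCl2, and the crude extract at 1 mg/mL protein was treated with 10 μM compound for 30 min. Aliquots were heated for 3 min across 48°C-58°C, pooled, and brought to 0.5% NP-40 at 4°C; soluble protein was the supernatant after 21,000xg for 90 min. Soluble protein was quantified by TMTpro 16plex LC-MS/MS with channel sums equalised, and reported as log2 fold change in thermal stability against DMSO controls, with values from duplicates.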
As to NOL3 isoform 3 (UniProt O60936), the log2 fold change was inactive: 0.082.

With NSD1 (UniProt Q96L73), the log2 fold change is inactive: -0.027.

Turning to NOL4L (UniProt Q96MY1), the log2 fold change is inactive: 0.081.

As for NOL8 (UniProt Q76FK4), the log2 fold change was inactive: -0.076.

With NOCT (UniProt Q9UK39), the log2 fold change was inactive: -0.025.

In the case of NUDT22 (UniProt Q9BRQ3), the log2 fold change was inactive: 0.036.

For the target NOMO3 (UniProt P69849), the log2 fold change was inactive: -0.002.

With NOM1 (UniProt Q5C9Z4), the log2 fold change is inactive: -0.04.

Compound in another assay: CS(=O)(=O)N1CCN(Cc2cc3nc(-c4cccc5[nH]ncc45)nc(N4CCOCC4)c3s2)CC1 [pictilisib]
The description is as above. The procedure, abridged:
as §1
Consider NR3C1 isoform 3 (UniProt P04150), for which the log2 fold change is inactive: -0.26.

As to NRGN (UniProt Q92686), the log2 fold change is inactive: 0.131.

NR2C1 (UniProt P13056): the log2 fold change was inactive: 0.071.

Consider NPLOC4 (UniProt I3L3I1), for which the log2 fold change is inactive: 0.145.

NMNAT3 (UniProt Q96T66): the log2 fold change was inactive: -0.077.

Regarding NTAN1 (UniProt Q96AB6), the log2 fold change is inactive: 0.05.

Turning to NUFIP1 (UniProt Q9UHK0), the log2 fold change is inactive: 0.022.

Regarding NSD3 (UniProt Q9BZ95), the log2 fold change is inactive: -0.12.

The values are drawn from the supplement of paper PMC10849652.
